Measured values: PMC8346855
Results are given in words; binding and its absence hold for the method and conditions named. Some binding calls cover weakened binding; strength is not graded here.

Target: Gβ1 of bovine transducin (bovine)
Assay: cross-linking + other: high-mass MALDI-MS; Gαi incubated with Gβ and Gγ, cross-linked with the shorter cross-linkers DSS (spacer arm 11.4 Å) or BS(PEG)5 (21.7 Å); both purified

B1: Gγ1 of bovine transducin (protein)
chain: MPVINIEDLTEKDKLKMEVDQLKKEVTLERMLVSKCCEEFRDYVEERSGEDPLVKGIPEDKNPFKELKGGCVIS
In the case of B1, the binding is reported as “binds”.
